Measurements published in article PMC7819943, “Rice protein-binding microarrays: a tool to detect cis-acting elements near promoter regions in rice”.
This is one part of the list.

The sequences below were run against T1, OsSMF1 (Oryza sativa, UniProt Q6ZLB0 1-436) (assay: protein-binding microarray (RPBM); PBS, 2% BSA, 51.3 ng/ul salmon testes DNA, 50 uM zinc acetate, 200 nM TF, 25 C, 1 h; high values mean tight binding). Settings: protein: recombinant; tags: N-terminal polyhistidine and DsRed monomer fusion (pET32a); chain copies: 2; label: CyDye5-dUTP incorporated in the synthesized complementary strand; 3' TTTTT single-stranded linker to array surface; dsDNA, one strand shown.
T1 sequence: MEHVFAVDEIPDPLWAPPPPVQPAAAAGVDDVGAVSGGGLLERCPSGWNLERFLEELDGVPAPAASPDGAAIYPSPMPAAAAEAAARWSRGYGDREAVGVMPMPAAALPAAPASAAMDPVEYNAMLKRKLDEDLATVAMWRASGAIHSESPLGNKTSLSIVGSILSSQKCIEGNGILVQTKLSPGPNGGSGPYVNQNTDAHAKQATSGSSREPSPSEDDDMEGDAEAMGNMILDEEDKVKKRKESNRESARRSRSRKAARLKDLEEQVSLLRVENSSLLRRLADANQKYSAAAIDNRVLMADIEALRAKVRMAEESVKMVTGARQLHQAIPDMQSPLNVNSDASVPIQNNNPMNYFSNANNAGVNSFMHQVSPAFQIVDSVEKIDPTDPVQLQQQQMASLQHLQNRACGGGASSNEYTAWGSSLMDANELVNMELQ
Outline: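 Per-feature fluorescence intensity (arbitrary units), read on an Axon 4000B scanner, is the binding signal. Transcription factors carrying an N-terminal polyhistidine tag and DsRed fusion were expressed in E. coli BL21-CodonPlus and purified on Ni–NTA. A custom Agilent array, made double-stranded by primer extension with Cy5-dUTP and blocked with 2% BSA, was incubated with 200 nM protein in PBS, 2% BSA, salmon testes DNA and 50 µM zinc acetate at 25 °C for 1 h and then washed.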

**Q.** For “GAGTCCATCCCTATCCTGTCCAAGTCACCCAATCATCATCCGGAGTCACCTAGTGCAG”, which binding signal is on record?
**A.** The binding signal was 4240 fluorescence intensity (a.u.).

**Q.** With “TCGCATCACGCCACGTCACCCCTCTGACGCGCGCGACCCCCGGAGTCACCTAGTGCAG” as the sequence, how does the binding signal read?
**A.** Its binding signal is 32000 fluorescence intensity (a.u.).

**Q.** For “AAGCCGGCCGGCCGGCCAGTCAGTGACATGTATGTTCATGCGGAGTCACCTAGTGCAG”, which binding signal is on record?
**A.** The binding signal was 3400 fluorescence intensity (a.u.).

**Q.** With “CGTAAGTAAGGTGTACGCGTGTAATCGGATCAGCGGGTAACGGAGTCACCTAGTGCAG” as the sequence, how does the binding signal read?
**A.** The binding signal was 3200 fluorescence intensity (a.u.).

**Q.** How did the binding signal turn out when “AGGCCACACGAGATAGGCTGCAACTGCAAGGGCCTGTGCCCGGAGTCACCTAGTGCAG” was run?
**A.** The binding signal was 12700 fluorescence intensity (a.u.).

**Q.** For “ATTTTACTAGCTGATAAGTAAGCGGAAAGATGAGGCTCTTCGGAGTCACCTAGTGCAG”, which binding signal is on record?
**A.** The binding signal was 25300 fluorescence intensity (a.u.).

**Q.** How did the binding signal turn out when “TTGATTATTTCAGTTCATGACTCGGCATAGCACCAGCAAACGGAGTCACCTAGTGCAG” was run?
**A.** Its binding signal is 5530 fluorescence intensity (a.u.).

**Q.** With “GTTTGCACTAATTTGACACGAACACTTATTTCACACGTGGCGGAGTCACCTAGTGCAG” as the sequence, how does the binding signal read?
**A.** Its binding signal is 7940 fluorescence intensity (a.u.).

**Q.** “CCTTTCCGATTACGTGTTGGACCTTGACCCTAGGCCATATCGGAGTCACCTAGTGCAG” was tested. Which binding signal did it give?
**A.** Its binding signal is 49700 fluorescence intensity (a.u.).

**Q.** How did the binding signal turn out when “CGTGTCGTGGAACACCGTCATCTCCGCGCTGGCGCGGTCGCGGAGTCACCTAGTGCAG” was run?
**A.** The binding signal was 5630 fluorescence intensity (a.u.).

**Q.** “AATCTTTTGAAGCACCGATTACTCACCTCTCCTCCGACAACGGAGTCACCTAGTGCAG” was tested. Which binding signal did it give?
**A.** The binding signal was 3240 fluorescence intensity (a.u.).

**Q.** “GTTTATACCTATAAAGTTTCTATATTAAAAGTTTACGTGTCGGAGTCACCTAGTGCAG” was tested. Which binding signal did it give?
**A.** Its binding signal is 3490 fluorescence intensity (a.u.).

**Q.** With “CCATGAAAGTACTCTCACTGACAGGTGGCCCCACACTCTGCGGAGTCACCTAGTGCAG” as the sequence, how does the binding signal read?
**A.** Its binding signal is 3840 fluorescence intensity (a.u.).

**Q.** With “TTCTGTACATTTAGCTACCCACGCGTTCAGGCTACAACCTCGGAGTCACCTAGTGCAG” as the sequence, how does the binding signal read?
**A.** Its binding signal is 3160 fluorescence intensity (a.u.).

**Q.** How did the binding signal turn out when “CCCTTTATCGGAACACATATCCTAATGACGTCATCAAGCGCGGAGTCACCTAGTGCAG” was run?
**A.** The binding signal was 26100 fluorescence intensity (a.u.).

**Q.** Which binding signal does the source give for “GGCGAAGAATGCAGACATGACACGGACCCATCGACGCGGGCGGAGTCACCTAGTGCAG” here?
**A.** The binding signal was 3340 fluorescence intensity (a.u.).

**Q.** “GCGAAGCAACATGCTGCTGCTCAAGAGGAGGAAGATGGTGCGGAGTCACCTAGTGCAG” was tested. Which binding signal did it give?
**A.** The binding signal was 3350 fluorescence intensity (a.u.).

**Q.** With “AACTCGCTCTCCGGGTAGAGTACACGTCACCACCCGACTCCGGAGTCACCTAGTGCAG” as the sequence, how does the binding signal read?
**A.** Its binding signal is 17100 fluorescence intensity (a.u.).

**Q.** With “AATAGATTTCCTTCACTCGCCCGTGTCTTTAAAACCGGGTCGGAGTCACCTAGTGCAG” as the sequence, how does the binding signal read?
**A.** The binding signal was 3390 fluorescence intensity (a.u.).

**Q.** With “GCCACATTATTTGGAGACAAACTCAGTGCCGATGTCAGCGCGGAGTCACCTAGTGCAG” as the sequence, how does the binding signal read?
**A.** Its binding signal is 4600 fluorescence intensity (a.u.).

**Q.** “TCCTTAAATATCGGGCAATCATCGTCACACACAGTGACAGCGGAGTCACCTAGTGCAG” was tested. Which binding signal did it give?
**A.** Its binding signal is 4610 fluorescence intensity (a.u.).

**Q.** “TTACGCGCAATCGCATCGCTACCACGAAAACTCCACAAGACGGAGTCACCTAGTGCAG” was tested. Which binding signal did it give?
**A.** The binding signal was 3160 fluorescence intensity (a.u.).

**Q.** “AGATAGTCATCTAACCTAGGGTACACGTAGATCCTCACAACGGAGTCACCTAGTGCAG” was tested. Which binding signal did it give?
**A.** The binding signal was 7830 fluorescence intensity (a.u.).

**Q.** Which binding signal does the source give for “CACATGAACTCACTGAGTCACTGGGTGGTTTGTTGCATTGCGGAGTCACCTAGTGCAG” here?
**A.** The binding signal was 6080 fluorescence intensity (a.u.).

**Q.** With “ATTTTGACTGATGTGACGTTTGCGTGGCTGGTTTGATTAGCGGAGTCACCTAGTGCAG” as the sequence, how does the binding signal read?
**A.** Its binding signal is 4770 fluorescence intensity (a.u.).

**Q.** “GCACACGATACGACACGTCCAGGTCAGGAGAGGCTCCAACCGGAGTCACCTAGTGCAG” was tested. Which binding signal did it give?
**A.** The binding signal was 20700 fluorescence intensity (a.u.).

**Q.** Which binding signal does the source give for “ACTTGCGCGCGTCGTTACCCGTTTTGCCCTGACGCGTGCACGGAGTCACCTAGTGCAG” here?
**A.** Its binding signal is 5170 fluorescence intensity (a.u.).

**Q.** Which binding signal does the source give for “ACGACATTAATGCTTTCCCCACATTTCTCTCTCAGACTCTCGGAGTCACCTAGTGCAG” here?
**A.** Its binding signal is 17400 fluorescence intensity (a.u.).

**Q.** For “ACCCGGTTGGCTGTTGCCAGCTACCACTTCGACCTGAGCGCGGAGTCACCTAGTGCAG”, which binding signal is on record?
**A.** The binding signal was 3520 fluorescence intensity (a.u.).

**Q.** With “CGCCAGCCCAGCCGCTGTGACGTGCTCACTGTTTCGGCGGCGGAGTCACCTAGTGCAG” as the sequence, how does the binding signal read?
**A.** Its binding signal is 7190 fluorescence intensity (a.u.).

**Q.** Which binding signal does the source give for “TTTCATGGATAACACGTGCACTACATTCTTGCCTGTTCCACGGAGTCACCTAGTGCAG” here?
**A.** Its binding signal is 4800 fluorescence intensity (a.u.).

**Q.** How did the binding signal turn out when “CCAGCCGCCATCCCGGCTTTGACGACCACCATCCGGAGCACGGAGTCACCTAGTGCAG” was run?
**A.** Its binding signal is 31500 fluorescence intensity (a.u.).

**Q.** How did the binding signal turn out when “GAGCCGGGAGGGACTTGTGGGGCCCACGTGGGCCCACCAACGGAGTCACCTAGTGCAG” was run?
**A.** Its binding signal is 4150 fluorescence intensity (a.u.).

**Q.** How did the binding signal turn out when “GCCAGCACCTACTGGCCCCACATCCAGGGGCATTCATATGCGGAGTCACCTAGTGCAG” was run?
**A.** The binding signal was 4500 fluorescence intensity (a.u.).

**Q.** For “ATGGCTTCAGGGGTGCAGCTGGTAAGAGAAGTGATGTCAGCGGAGTCACCTAGTGCAG”, which binding signal is on record?
**A.** The binding signal was 5570 fluorescence intensity (a.u.).

**Q.** How did the binding signal turn out when “ATCGACCATCCACACGCACGCACTTATACAATTTGGTTTCCGGAGTCACCTAGTGCAG” was run?
**A.** The binding signal was 3260 fluorescence intensity (a.u.).

**Q.** How did the binding signal turn out when “TGGTCGGCACGGAGCGAGCCACTGGCTCCTGCCACCCGCGCGGAGTCACCTAGTGCAG” was run?
**A.** The binding signal was 18000 fluorescence intensity (a.u.).

**Q.** With “ACGCACCGGACCGTGCCGTGCCAGCCCACGTGCCGCACTCCGGAGTCACCTAGTGCAG” as the sequence, how does the binding signal read?
**A.** The binding signal was 3980 fluorescence intensity (a.u.).

**Q.** “GGCAACGGCGTCAACATCTAGGGAAGGAGGGAGTAGTATACGGAGTCACCTAGTGCAG” was tested. Which binding signal did it give?
**A.** Its binding signal is 29500 fluorescence intensity (a.u.).

**Q.** Which binding signal does the source give for “GGTGGCGCCTACGTGGCTAGTTTGACTTGGTCTTCATCTACGGAGTCACCTAGTGCAG” here?
**A.** The binding signal was 16600 fluorescence intensity (a.u.).

**Q.** Which binding signal does the source give for “GTCGCGTTGCAAGCCACCAGTCAGCAAGTCTGCTGTCACCCGGAGTCACCTAGTGCAG” here?
**A.** Its binding signal is 3830 fluorescence intensity (a.u.).

**Q.** With “AGGAGAGAAAATTATCATCCCACCCTGGCGCCTCCTCTCCCGGAGTCACCTAGTGCAG” as the sequence, how does the binding signal read?
**A.** Its binding signal is 5120 fluorescence intensity (a.u.).
